Values from PubChem BioAssay AID1159584 (Peter MacCallum Cancer Centre, 2016).
The deposit covers about 18,000 reagents; this is a random part of them. Not all columns of the deposit are shown. Not given: the amount of reagent, the time to read-out.

Purpose: 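Genes whose loss is lethal only together with E-cadherin loss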 (primary screen)
System: human MCF10A breast epithelial cells, parental and CDH1-null
Reagent: siRNA against human genes
Detection: 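ATP luminescence (CellTiter-Glo) viability per line relative to mean mock wells over all plates, and the ratio of CDH1-null to parental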
Direction: CDH1-null / parental viability ratio: higher = CDH1-null cells survive relatively better than parental

target gene	CDH1-null / parental viability ratio
TRMT10A	1.05
GIMAP7	0.85
FOXP2	1.22
ARMCX1	1
NAV1	1.02
CIMAP2	0.87
PPP2R5A	1.25
CLDN4	0.89
CDK16	0.93
MACROD1	1.27
SLC35G1	1.06
GLB1	1.04
ZNF215	1.16
GJB7	0.84
PCMTD1	1.16
ARRDC5	1.16
ITIH4	0.89
ZNF224	0.56
TSLIG3A	1.01
HMBOX1	0.87
LINC00477	1.19
SERTAD3	1.54
DCAF1	1.24
ACVR1B	0.93
RNF39	0.92
DEFB115	0.86
USP24	1.21
GSTCD	0.84
RAB33B	1.1
POLR1H	0.89
HDAC9	0.65
CYP4A22	1.06
GK	1
MRPL27	0.83
CCNO	1
PRR13	0.81
CADPS2	0.89
ANAPC13	0.9
ANKRD44	0.98
AGAP1	1.08
LRIG2	1.3
ZCCHC10	0.92
PRDX3	1.07
C1orf56	0.79
EXOSC9	1.04
RSPH3	1.01
MAGEC2	0.93
SLC29A1	1
NR4A3	1.43
OR9G4	1.08
CD300C	1.61
BIRC3	0.96
CPLX2	0.96
OR8K3	1.18
CRK	0.62
SYNE1	0.85
ZNF181	0.83
AKR1D1	1.2
SLC12A5	1.22
NR2F1	1.04
C16orf90	1.27
PLIN4	0.98
DCAF12L1	0.72
SLC13A1	1
ESYT2	1.12
OR52A4P	0.96
ZMYM1	1.39
UBIAD1	0.84
KIAA1586	1.22
CYP27B1	1.04
PPTC7	1.16
TNPO2	0.73
FANCG	0.98
EXOC3L4	0.8
SPMIP6	1.31
CYB561	1.38
ZNF3	1.28
ERI1	0.95
LRRC31	0.96
NRN1L	0.7
OR2J2	1.31
NLRP10	1.12
RPS6KA6	0.94
HSD17B14	0.74
PDGFA	1.02
RPA1	0.96
FNDC9	1.17

A run of entries from the list above, for reference:
target gene	CDH1-null / parental viability ratio
PRDX3	1.07
C1orf56	0.79
EXOSC9	1.04
RSPH3	1.01
MAGEC2	0.93
